Values joined by “and” are separate entries in the source; they are usually repeats but may differ in a detail not shown here. Equal entries are not always repeated. This is one part of the list. The main result of the screen is listed elsewhere. These columns were measured beside it and carry no call. Most of these compounds were active or inconclusive in the main read-out, so they are no random draw. Potencies come from curve fits of mixed quality, noted in brackets.
Assay: qHTS Assay for Modulators of Lamin A Splicing
Conditions: HeLa LMNA splicing GFP/RFP minigene ratio, 48 h
Method in brief: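 S3 HeLa cells stably expressing lamin A-EGFP splicing minigene plus DsRed2, 600 cells/well, 48 h compound exposure at 37C. Laser-scanning cytometry; analysed as GFP (500-530 nm)/RFP (575-640 nm) total intensity ratio; 0.5% DMSO vehicle.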

[1] = measured here: RFP viability control channel
[2] = measured here: GFP splicing reporter channel

SMILES	AC50 [1]	AC50 [2]
CCOC(=O)/C(C)=C1\NC(C)(C)Cc2ccccc21	31.6 µM [rising, single point]	–
CCOc1ccc(C(=O)N2CCN(Cc3cc(=O)n4nc(-c5ccccc5Cl)sc4n3)CC2)cc1	–	0.158 µM [rising, full curve, poor fit]
CN(Cc1nc(-c2ccncc2)no1)S(=O)(=O)c1ccc(Br)cc1	22.4 µM [rising, single point]	–
CC(=O)Oc1cccc(-c2nc3ccccc3c(=O)o2)c1	4.47 µM [falling, partial curve]	–
CN(C)c1ccc([C@@H]2[C@@H]([N+](=O)[O-])[C@H]3C=Cc4ccccc4N3[C@H]2C(=O)c2ccc(Cl)cc2)cc1	2.82 µM [rising, partial curve]	–
COc1ccc(C(=O)Nc2ccc(S(=O)(=O)N3CCCCC3C)cc2)c(OC)c1OC (stereo not drawn)	20 µM [rising, single point]	–
Cc1ccc(NC(=O)CCOc2ccccc2C)cc1F	0.0794 µM [falling, full curve, poor fit]	0.141 µM [falling, full curve, poor fit]
C[N+]12CCCCC1C(COC(=O)c1ccc3c(c1)OCO3)CCC2 (stereo not drawn)	–	3.55 µM [rising, partial curve, poor fit]
CC(=O)Oc1ccc(Cl)cc1/C=C/c1cc(OC(C)=O)c2ccccc2n1	35.5 µM [rising, single point]	–
c1csc(Cc2nc3ccccc3[nH]2)c1	2.24 µM [rising, partial curve]	–
Cc1nc2ccc(NC(=O)C3CCN(S(=O)(=O)c4cccs4)CC3)cc2s1	22.4 µM [rising, single point]	–
Cc1cc(C)cc(N2C(=O)CN(Cc3sccc3C)C2=S)c1	35.5 µM [rising, single point]	–
Cc1cccc(N2CCN(C(=O)C3CCN(c4nnc(-n5cccc5)s4)CC3)CC2C)c1 (stereo not drawn)	31.6 µM [rising, single point]	–
COc1ccccc1NC(=O)CC1Nc2ccccc2NC1=O (stereo not drawn)	35.5 µM [rising, single point]	–
COC(=O)[C@@]1(Cc2ccc(OC)cc2)[C@H]2c3cc(C(=O)N(C)C)n(CCSCCO)c3C[C@H]2CN1C(=O)c1ccccc1	0.00447 µM [falling, full curve, poor fit]	–
O=C(NCCOc1ccc(Cl)cc1)C1CC(=O)N(c2ccc(F)cc2)C1 (stereo not drawn)	0.398 µM [falling, partial curve, poor fit]	–
Cc1ccc(NC(=O)c2cc(S(=O)(=O)NCCC3=CCCCC3)ccc2F)cc1	2.82 µM [rising, partial curve]	20 µM [falling, partial curve, poor fit]
COc1ccccc1N1CCN(C/C=C/c2ccc(N(C)C)cc2)CC1	–	12.6 µM [rising, single point]

Three entries already listed, ordered by SMILES length, smallest number first:
SMILES	AC50 [1]	AC50 [2]
CN(Cc1nc(-c2ccncc2)no1)S(=O)(=O)c1ccc(Br)cc1	22.4 µM [rising, single point]	–
Cc1nc2ccc(NC(=O)C3CCN(S(=O)(=O)c4cccs4)CC3)cc2s1	22.4 µM [rising, single point]	–
Cc1cccc(N2CCN(C(=O)C3CCN(c4nnc(-n5cccc5)s4)CC3)CC2C)c1 (stereo not drawn)	31.6 µM [rising, single point]	–

Further results

SMILES	AC50 [1]	AC50 [2]
Cc1ccc(NCC(=O)N/N=C/c2cccc(Oc3ccccc3)c2)cc1	35.5 µM [rising, single point]	–
Cc1nnc(SCC(=O)N2c3ccccc3C(C)(c3ccc(Cl)cc3)CC2(C)C)s1 (stereo not drawn)	35.5 µM [rising, single point]	–
COc1ccc(CCC(=O)Nc2cccc(S(=O)(=O)N(C)C)c2)cc1OC	22.4 µM [rising, single point]	–
Cc1ccc(CNc2ccc(S(=O)(=O)N3CCOCC3)cc2[N+](=O)[O-])cc1	35.5 µM [rising, single point]	31.6 µM [rising, single point]
O=C(COC(=O)CCCN1C(=O)c2ccccc2C1=O)Nc1cc(Cl)cc(Cl)c1	0.355 µM [falling, partial curve, poor fit]	–
Cc1ccc(C(=O)Nc2nc(-c3cc(Cl)sc3Cl)cs2)cc1	11.2 µM [rising, partial curve]	22.4 µM [rising, single point]
O=C(NCCCN1CCOCC1)c1ccc(N2CCCC2)c([N+](=O)[O-])c1	–	6.31 µM [falling, partial curve, poor fit]
Cc1nnc(SCC(=O)N2CCN(S(=O)(=O)c3ccc(Cl)cc3)CC2)[nH]c1=O	14.1 µM [rising, single point]	35.5 µM [rising, single point]
Brc1c(CSc2nc3ccccc3s2)nc2ncccn12	12.6 µM [rising, partial curve, poor fit]	–
COc1ccccc1NC(=O)CSc1nnc(-c2ccccn2)n1Cc1ccco1	0.631 µM [falling, single point]	–
Oc1ccccc1C=NC1=NN(c2cccc(C(F)(F)F)c2)CC1	35.5 µM [rising, single point]	–
COc1ccc(C)cc1-n1nnnc1SCc1csc(C)n1	–	35.5 µM [rising, single point]
CC1CCCCN1S(=O)(=O)c1ccc2c(c1)oc(=O)n2CC(=O)Nc1ccc(Cl)cc1 (stereo not drawn)	0.141 µM [rising, full curve]	–
CCCCNc1cc(C(=O)O)cc(S(N)(=O)=O)c1Oc1ccccc1	8.91 µM [falling, partial curve, poor fit] and 5.62 µM [falling, partial curve, poor fit]	0.141 µM [falling, full curve]
COc1ccccc1NC(=S)N1CCN(C(c2ccccc2)c2ccccc2)CC1	0.316 µM [falling, partial curve, poor fit]	–
Cc1ccc(C(=O)Nc2ccccc2C(=O)NC(Cc2ccccc2)C(=O)O)cc1 (stereo not drawn)	0.794 µM [rising, full curve, poor fit]	0.794 µM [rising, full curve, poor fit]
CCc1ccc(-c2nn(CC(=O)NC3CCCCC3)c3c2cnc2ccc(OC)cc23)cc1	–	1.78 µM [falling, partial curve, poor fit]
CC(CN1CC(=O)NC(=O)C1)N1CC(=O)NC(=O)C1 (stereo not drawn)	11.2 µM [rising, partial curve, poor fit]	–
